For at least one compound, name, drawing or mass did not settle the structure.
How the values were obtained:
[1] = test system: lipid plaque on arterial vascular walls in the thoracic cavity; experiment: Lipid plaque staining in arteries of high cholesterol diet animals; format: in vivo, hamsters; settings: high cholesterol diet for eight weeks, human-equivalent per day: MK 2.89 mg, MS 9.82 mg, AF 1.43 mg
Procedure: Firstly, the experiment utilizes hamsters feed with high cholesterol diet as experimental animals, which are then feed with MS, AF, MS+AF, and MK for 8 weeks, and then each of cholesterol parameters in blood of the hamsters are analyzed. The cholesterol parameters include total cholesterol (TC), triglyceride (TG), high density lipoprotein cholesterol (HDL-C), low density lipoprotein cholesterol (LDL-C), ratio of LDL-C to HDL-C, and malondialdehyde (MDA). The amount of the MK taken by the experimental animals is equivalent to 2.89 mg taken by an adult human per day. Additionally, a normal diet group is referred to as NOR, and a high cholesterol diet group is referred to as HC.
Another important indicator for evaluating atherosclerosis is the analysis of lipid plaque staining in arteries, and the results of lipid plaque staining can indicate that whether lipid plaque deposits on arterial vascular walls. Large amounts of lipid with over-oxidation can cause bulk deposition of foam cells, and then the vascular walls lose elasticity and large amounts of lipid plaque are deposited, so as to lead to atherosclerosis. Referring to FIG. 11, which is a diagram of quantitative results of the lipid plaque staining experiment.

[2] = test system: cholesterol biosynthesis; experiment: Cell experiment on inhibition of cholesterol biosynthesis; format: cell-based; settings: cells treated with the same concentration, 100 ppb
Text: In order to compare the inhibitory effect of cholesterol biosynthesis by monascin, ankaflavin and monacolin K, the present invention applies a cell experiment and treats cells with monascin, ankaflavin and monacolin K with the same concentration (100 ppb) for researching the influence of these ingredients on the cholesterol biosynthesis.

Structure (SMILES)	amount of lipid plaque on arterial vascular walls (lipid plaque staining, FIG. 11) [1]	inhibition of cholesterol biosynthesis (FIG. 12) [2]
C/C=C/C1=CC2=C(CO1)C(=O)[C@]1(C)OC(=O)[C@H](C(=O)CCCCCCC)[C@H]1C2 [AF, ankaflavin]	better than that of the MS group	–
C/C=C/C1=CC2=C(CO1)C(=O)[C@]1(C)OC(=O)[C@H](C(=O)CCCCC)[C@H]1C2 [MS, monascin]	the effect of the MK group is not as good as that of the MS	followed by monascin
